Experimental data: patent publication US20250072421A1, “ARYL DIHYDROPYRAN DERIVATIVE OR SALT THEREOF, PEST CONTROL AGENT CONTAINING SAME, AND METHOD FOR USE THEREOF” (ADEKA Corporation, priority 2021, published 2025)
Some of these results come from one statement about several compounds together. At least one compound was matched to its structure with a doubt left.

Test system: Dirofilaria immitis
Assay: Influence evaluation test on the growth of Dirofilaria immitis
Type: cell-based
Conditions: final concentration 10 μM, 24-well plate, seven days

For `O=C(Nc1ccc(SC(F)(F)F)cc1)C1=C(O)CC(c2ccc(C(F)(F)F)cc2)OC1=O` (stereo not shown) [1-8], which “development inhibition rate from the L3 stage larva to the L4-stage larva” value (from here on “development inhibition rate”) is on record?
The value was “not less than 50%”.

`O=C(Nc1ccc(Oc2ccccc2)cc1)C1=C(O)CC(c2ccc(C(F)(F)F)cc2)OC1=O` (stereo not shown) [1-14] was tested. Which “development inhibition rate” value did it give?
Its value is “not less than 50%”.

For `CC1(C)C(O)=C(C(=O)Nc2ccc(F)cc2)C(=O)OC1c1ccc(C(F)(F)F)cc1` (stereo not shown) [1-22], which “development inhibition rate” value is on record?
The value was “not less than 50%”.

Which “development inhibition rate” value does the source give for `O=C1OC(c2ccc(C(F)(F)F)c(Cl)c2)CC(O)=C1C(=S)Nc1ccc(C(F)(F)F)cc1` (stereo not shown) [1-23] here?
The value was “not less than 50%”.

`O=C1OC(c2ccc(C(F)(F)F)c(Cl)c2)CC(O)=C1C(=S)Nc1ccc(F)cc1` (stereo not shown) [1-24] was tested. Which “development inhibition rate” value did it give?
The value was “not less than 50%”.

For `Cc1ccc(NC(=S)C2=C(O)CC(c3ccc(C(F)(F)F)cc3)OC2=O)cc1` (stereo not shown) [1-28], which “development inhibition rate” value is on record?
The value was “not less than 50%”.

With `O=C1OC(c2ccc(C(F)(F)F)cc2)CC(O)=C1C(=S)Nc1ccc(OC(F)(F)F)cc1` (stereo not shown) [1-29] as the molecule, how does the “development inhibition rate” value read?
Its value is “not less than 50%”.

With `CC1(C)C(O)=C(C(=S)Nc2ccc(F)cc2)C(=O)OC1c1ccc(C(F)(F)F)cc1` (stereo not shown) [1-67] as the molecule, how does the “development inhibition rate” value read?
Its value is “not less than 50%”.

With `CC(C)(C)OC(=O)N1CCC2(CC1)C(O)=C(C(=S)Nc1ccc(F)cc1)C(=O)OC2c1ccc(C(F)(F)F)cc1` (stereo not shown) [1-70] as the molecule, how does the “development inhibition rate” value read?
Its value is “not less than 50%”.

`O=C(Nc1ccc([N+](=O)[O-])cc1)C1=C(O)CC(c2ccc(C(F)(F)F)cc2)OC1=O` (stereo not shown) [1-72] was tested. Which “development inhibition rate” value did it give?
Its value is “not less than 50%”.

How did the “development inhibition rate” value turn out when `Cc1ccc(NC(=O)C2=C(O)CC(c3ccc(C(F)(F)F)cc3)OC2=O)cc1` (stereo not shown) [1-73] was run?
The value was “not less than 50%”.

With `O=C(NC1CC1)C1=C(O)CC(c2ccc(C(F)(F)F)cc2)OC1=O` (stereo not shown) [1-74] as the molecule, how does the “development inhibition rate” value read?
The value was “not less than 50%”.

For `O=C(Nc1ccc(F)cc1)C1=C(O)CC(c2cc(-c3ccccc3)no2)OC1=O` (stereo not shown) [1-78], which “development inhibition rate” value is on record?
The value was “not less than 50%”.
